Measured values published in the supplement of paper PMC10849652.
Some of the results follow.

Amino acid sequences for entries named in this document (tags omitted). A change or cut given only in a name is not applied to a line headed by its entry.
UniProt Q15173: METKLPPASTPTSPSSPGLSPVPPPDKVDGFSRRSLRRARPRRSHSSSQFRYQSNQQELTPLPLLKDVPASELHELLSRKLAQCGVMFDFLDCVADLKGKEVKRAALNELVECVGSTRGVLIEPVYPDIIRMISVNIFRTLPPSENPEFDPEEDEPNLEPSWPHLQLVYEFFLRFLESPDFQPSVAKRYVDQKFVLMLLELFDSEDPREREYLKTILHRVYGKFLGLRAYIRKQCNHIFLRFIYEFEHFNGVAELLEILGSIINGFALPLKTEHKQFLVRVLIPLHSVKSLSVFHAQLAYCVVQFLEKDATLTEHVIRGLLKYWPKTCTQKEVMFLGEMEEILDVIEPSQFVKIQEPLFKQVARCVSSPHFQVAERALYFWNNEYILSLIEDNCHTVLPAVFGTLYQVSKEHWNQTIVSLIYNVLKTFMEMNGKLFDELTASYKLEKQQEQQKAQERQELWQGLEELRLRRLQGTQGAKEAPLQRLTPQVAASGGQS
UniProt Q6ZMI0: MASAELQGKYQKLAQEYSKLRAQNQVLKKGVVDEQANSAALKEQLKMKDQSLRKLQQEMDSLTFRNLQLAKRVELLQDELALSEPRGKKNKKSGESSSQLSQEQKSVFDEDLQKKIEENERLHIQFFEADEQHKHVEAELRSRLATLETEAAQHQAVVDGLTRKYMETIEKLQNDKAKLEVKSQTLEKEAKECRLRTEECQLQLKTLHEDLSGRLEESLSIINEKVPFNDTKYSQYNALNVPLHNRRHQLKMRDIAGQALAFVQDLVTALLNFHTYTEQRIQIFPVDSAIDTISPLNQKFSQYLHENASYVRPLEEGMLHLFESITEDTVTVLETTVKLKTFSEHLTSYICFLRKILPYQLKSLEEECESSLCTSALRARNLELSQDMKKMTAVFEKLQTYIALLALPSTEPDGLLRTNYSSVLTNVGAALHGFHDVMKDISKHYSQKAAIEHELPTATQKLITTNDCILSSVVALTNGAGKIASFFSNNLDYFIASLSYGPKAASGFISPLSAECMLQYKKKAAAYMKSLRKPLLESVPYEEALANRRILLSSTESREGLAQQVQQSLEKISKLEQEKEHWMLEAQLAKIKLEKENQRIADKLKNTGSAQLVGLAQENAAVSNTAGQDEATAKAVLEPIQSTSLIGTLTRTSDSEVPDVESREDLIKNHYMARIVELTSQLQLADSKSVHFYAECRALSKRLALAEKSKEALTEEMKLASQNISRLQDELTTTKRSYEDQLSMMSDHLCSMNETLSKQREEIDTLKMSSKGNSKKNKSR
UniProt P49642: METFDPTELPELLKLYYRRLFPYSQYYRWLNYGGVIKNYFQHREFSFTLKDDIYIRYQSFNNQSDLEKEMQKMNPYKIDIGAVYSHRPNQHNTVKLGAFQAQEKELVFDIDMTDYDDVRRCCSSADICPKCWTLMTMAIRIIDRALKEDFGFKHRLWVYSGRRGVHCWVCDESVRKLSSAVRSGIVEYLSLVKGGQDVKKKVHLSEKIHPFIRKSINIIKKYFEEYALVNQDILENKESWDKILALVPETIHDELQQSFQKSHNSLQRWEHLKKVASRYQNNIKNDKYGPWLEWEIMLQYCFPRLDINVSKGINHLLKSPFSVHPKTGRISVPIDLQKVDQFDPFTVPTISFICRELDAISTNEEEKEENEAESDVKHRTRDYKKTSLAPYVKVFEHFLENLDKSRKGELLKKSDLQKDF
UniProt Q9BZL4: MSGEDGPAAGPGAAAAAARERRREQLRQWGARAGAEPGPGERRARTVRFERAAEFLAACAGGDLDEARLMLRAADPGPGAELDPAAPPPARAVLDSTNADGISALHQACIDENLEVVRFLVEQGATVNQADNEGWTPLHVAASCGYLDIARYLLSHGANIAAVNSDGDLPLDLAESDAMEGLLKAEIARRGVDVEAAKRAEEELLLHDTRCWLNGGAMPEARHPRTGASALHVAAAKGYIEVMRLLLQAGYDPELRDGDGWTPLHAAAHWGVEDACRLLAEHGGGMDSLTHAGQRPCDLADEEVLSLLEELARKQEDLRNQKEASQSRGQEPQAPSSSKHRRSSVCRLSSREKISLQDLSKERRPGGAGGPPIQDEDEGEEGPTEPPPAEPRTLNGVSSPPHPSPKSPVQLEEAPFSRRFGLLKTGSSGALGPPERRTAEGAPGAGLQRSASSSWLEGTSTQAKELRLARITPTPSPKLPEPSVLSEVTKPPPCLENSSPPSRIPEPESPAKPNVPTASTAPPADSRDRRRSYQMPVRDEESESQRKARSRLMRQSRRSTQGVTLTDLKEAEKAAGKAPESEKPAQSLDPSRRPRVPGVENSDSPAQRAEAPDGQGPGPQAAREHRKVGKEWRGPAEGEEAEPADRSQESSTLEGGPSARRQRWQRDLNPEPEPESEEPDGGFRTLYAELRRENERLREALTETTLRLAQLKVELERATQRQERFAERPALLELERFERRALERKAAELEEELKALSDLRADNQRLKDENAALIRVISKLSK
UniProt P13727: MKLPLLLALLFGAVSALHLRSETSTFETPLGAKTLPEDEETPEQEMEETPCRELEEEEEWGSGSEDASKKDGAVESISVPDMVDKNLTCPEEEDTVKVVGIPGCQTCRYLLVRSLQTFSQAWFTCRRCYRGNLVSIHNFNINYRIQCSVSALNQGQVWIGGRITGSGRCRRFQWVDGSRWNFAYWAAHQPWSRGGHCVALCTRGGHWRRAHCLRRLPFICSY
UniProt O75400: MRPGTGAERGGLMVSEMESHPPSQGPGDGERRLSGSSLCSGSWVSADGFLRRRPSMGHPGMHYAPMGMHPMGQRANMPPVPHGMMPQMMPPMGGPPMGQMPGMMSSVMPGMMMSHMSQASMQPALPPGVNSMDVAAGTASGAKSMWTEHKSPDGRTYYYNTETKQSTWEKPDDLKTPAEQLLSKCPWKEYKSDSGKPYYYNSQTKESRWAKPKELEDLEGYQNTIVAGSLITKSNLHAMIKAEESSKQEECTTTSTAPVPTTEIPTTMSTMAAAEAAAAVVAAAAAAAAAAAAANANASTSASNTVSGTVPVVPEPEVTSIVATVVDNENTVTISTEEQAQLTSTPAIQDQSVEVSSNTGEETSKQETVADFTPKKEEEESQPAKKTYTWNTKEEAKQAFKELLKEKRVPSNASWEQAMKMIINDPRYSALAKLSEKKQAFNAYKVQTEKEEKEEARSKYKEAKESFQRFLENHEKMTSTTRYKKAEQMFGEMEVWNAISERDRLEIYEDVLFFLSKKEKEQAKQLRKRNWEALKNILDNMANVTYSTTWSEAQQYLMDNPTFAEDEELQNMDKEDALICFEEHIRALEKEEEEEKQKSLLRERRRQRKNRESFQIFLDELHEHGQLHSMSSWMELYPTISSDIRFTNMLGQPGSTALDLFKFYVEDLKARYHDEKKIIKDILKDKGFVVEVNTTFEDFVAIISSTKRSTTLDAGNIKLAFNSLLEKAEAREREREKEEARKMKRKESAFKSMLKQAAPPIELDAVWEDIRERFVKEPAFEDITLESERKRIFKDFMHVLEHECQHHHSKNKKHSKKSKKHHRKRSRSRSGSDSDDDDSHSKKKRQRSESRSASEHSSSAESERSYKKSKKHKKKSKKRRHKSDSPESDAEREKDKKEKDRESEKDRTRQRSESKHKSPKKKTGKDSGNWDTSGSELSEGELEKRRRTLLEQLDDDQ
UniProt O15355: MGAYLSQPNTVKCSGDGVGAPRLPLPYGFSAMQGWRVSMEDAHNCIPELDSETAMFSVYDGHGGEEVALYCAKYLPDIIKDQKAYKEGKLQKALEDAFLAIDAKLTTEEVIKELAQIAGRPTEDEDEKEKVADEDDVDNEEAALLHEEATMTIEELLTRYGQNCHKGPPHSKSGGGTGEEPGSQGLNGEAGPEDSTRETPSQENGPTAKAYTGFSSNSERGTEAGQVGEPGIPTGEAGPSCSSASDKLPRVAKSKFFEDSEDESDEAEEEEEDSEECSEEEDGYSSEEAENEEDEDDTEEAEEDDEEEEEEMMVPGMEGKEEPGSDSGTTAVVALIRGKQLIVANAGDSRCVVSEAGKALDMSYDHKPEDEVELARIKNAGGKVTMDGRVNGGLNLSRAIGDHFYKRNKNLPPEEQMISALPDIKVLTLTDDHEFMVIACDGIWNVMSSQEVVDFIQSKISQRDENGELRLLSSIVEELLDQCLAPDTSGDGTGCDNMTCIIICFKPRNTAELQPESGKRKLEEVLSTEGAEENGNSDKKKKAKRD
UniProt Q13523: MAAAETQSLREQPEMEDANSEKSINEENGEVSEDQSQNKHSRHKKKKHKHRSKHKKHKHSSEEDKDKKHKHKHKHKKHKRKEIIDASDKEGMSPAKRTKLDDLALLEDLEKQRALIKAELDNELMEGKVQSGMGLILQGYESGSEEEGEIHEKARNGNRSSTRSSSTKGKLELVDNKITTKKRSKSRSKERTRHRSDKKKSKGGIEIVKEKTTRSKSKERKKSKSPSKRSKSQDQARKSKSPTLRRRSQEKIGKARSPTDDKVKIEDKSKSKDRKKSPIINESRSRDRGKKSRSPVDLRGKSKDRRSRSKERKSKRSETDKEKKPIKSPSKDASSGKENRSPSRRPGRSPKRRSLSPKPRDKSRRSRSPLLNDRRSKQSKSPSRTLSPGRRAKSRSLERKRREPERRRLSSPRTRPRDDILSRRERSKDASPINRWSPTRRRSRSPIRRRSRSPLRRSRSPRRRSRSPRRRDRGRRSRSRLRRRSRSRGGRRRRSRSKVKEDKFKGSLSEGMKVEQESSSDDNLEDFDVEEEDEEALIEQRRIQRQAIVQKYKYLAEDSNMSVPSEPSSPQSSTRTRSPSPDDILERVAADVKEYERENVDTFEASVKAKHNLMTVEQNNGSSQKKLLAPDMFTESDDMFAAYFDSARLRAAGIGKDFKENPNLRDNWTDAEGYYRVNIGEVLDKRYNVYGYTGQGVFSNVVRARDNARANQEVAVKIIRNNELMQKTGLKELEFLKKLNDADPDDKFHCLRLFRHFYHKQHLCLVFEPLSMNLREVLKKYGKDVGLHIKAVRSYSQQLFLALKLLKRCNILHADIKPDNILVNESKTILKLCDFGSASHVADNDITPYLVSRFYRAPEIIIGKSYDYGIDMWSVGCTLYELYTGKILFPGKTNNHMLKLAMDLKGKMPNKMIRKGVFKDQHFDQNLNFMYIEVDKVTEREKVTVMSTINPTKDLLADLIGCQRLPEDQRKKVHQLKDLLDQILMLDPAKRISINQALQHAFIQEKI
UniProt Q13362, whole entry, looked up: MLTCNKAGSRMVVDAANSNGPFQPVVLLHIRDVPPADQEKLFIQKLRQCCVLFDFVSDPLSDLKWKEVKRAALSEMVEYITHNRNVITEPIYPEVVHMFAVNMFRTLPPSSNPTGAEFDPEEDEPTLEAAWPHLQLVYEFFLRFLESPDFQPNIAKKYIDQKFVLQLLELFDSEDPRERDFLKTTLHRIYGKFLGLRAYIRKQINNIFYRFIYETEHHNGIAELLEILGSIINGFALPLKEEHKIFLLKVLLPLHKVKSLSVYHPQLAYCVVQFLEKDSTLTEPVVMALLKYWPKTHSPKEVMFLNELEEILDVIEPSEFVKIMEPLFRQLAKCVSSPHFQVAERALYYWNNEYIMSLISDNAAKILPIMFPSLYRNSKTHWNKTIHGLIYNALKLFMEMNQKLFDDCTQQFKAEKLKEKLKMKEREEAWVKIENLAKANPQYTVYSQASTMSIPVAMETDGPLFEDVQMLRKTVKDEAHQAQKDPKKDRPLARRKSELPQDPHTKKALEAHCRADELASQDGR
UniProt Q9BSG0: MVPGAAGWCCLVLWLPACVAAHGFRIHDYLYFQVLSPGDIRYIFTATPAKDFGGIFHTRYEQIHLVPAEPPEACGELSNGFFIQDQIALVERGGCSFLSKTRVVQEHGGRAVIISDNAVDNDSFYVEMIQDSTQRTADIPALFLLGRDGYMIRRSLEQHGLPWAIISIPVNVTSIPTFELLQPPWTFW

Assays:
Experiment in all cases: log2 fold change, soluble protein after heating vs DMSO (PISA); higher = thermal stabilisation; K562 cells, 10 uM, 30 min; active = over 0.2 and 3.5 SD of the protein, either way, in both replicates (recomputed)
erlotinib = compound: C#Cc1cccc(Nc2ncnc3cc(OCCOC)c(OCCOC)cc23)c1 [erlotinib]
Method in brief: (§1)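 For each measurement, 10 μM compound was applied for 30 min to K562 cells at 2×10^6 cells/mL. Aliquots were heated for 3 min across 48°C-58°C, pooled, and extracted in PBS with 0.5% NP-40 at 4°C; the supernatant after 21,000xg for 90 min was soluble protein. This was quantified by TMTpro 16plex LC-MS/MS with channel sums equalised, and thermal stability was reported relative to control samples from duplicates, on a log2 fold-change scale.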

[1] = compound: C/C(=N\NC(=O)C1=CC(=CC=C1)S(=O)(=O)N2CCOCC2)/C3=C(C=CC(=C3)Cl)O
Method in brief: as §1

[2] = compound: C1=CC(=C(C=C1Cl)C2=NC3=NC=CN=C3C(=N2)NC4=CC=NC=C4)F
Method in brief: as §1

[3] = compound: C1=CC(=CC=C1C2=NC3=C(N2)C=C(C=C3)C(=O)N)OC4=CC=C(C=C4)Cl
Method in brief: as §1

[4] = compound: C1=CC2=C(C=CC(=C2)/C=C\3/C(=O)NC(=NCC4=CC=CS4)S3)N=C1
Method in brief: as §1

[5] = compound: C1=CC2=NC=CN=C2C=C1/C=C/3\C(=O)NC(=O)S3
Method in brief: as §1

[6] = compound: C1=CC=C(C=C1)C2=NC(=C(N2)C3=CC=NC=C3)C4=CC(=C(C=C4)Cl)O
Method in brief: as §1

[7] = compound: C1=CC=C2C(=C1)C3=NNC4=CC=CC(=C43)C2=O
Method in brief: as §1

[8] = compound: C1CCN(C1)C(=O)NC2=CC=CC(=C2)NC3=NC=C(C(=N3)NCCC4=CN=CN4)Br
Method in brief: as §1

[9] = compound: C1CN(CCC1(CC2=CC=C(C=C2)Cl)N)C3=NC=NC4=C3C=CN4
Method in brief: as §1

IRAK-1-4 Inhibitor I = compound: C1COCCN1CCN2C3=CC=CC=C3N=C2NC(=O)C4=CC(=CC=C4)[N+](=O)[O-] [IRAK-1-4 Inhibitor I]
Method in brief: as §1

ibrutinib = compound: C=CC(=O)N1CCC[C@@H](n2nc(-c3ccc(Oc4ccccc4)cc3)c3c(N)ncnc32)C1 [ibrutinib]
Method in brief: as §1

[10] = compound: CC(=O)c1cnc2ccc(-c3cc(Cl)c(O)c(Cl)c3)nc2c1N[C@H]1CC[C@H](CN(C)C)CC1
Method in brief: as §1

ralimetinib = compound: CC(C)(C)Cn1c(N)nc2ccc(-c3[nH]c(C(C)(C)C)nc3-c3ccc(F)cc3)nc21 [ralimetinib]
Method in brief: as §1

[11] = compound: CC(C)(O)CC(=O)NCCn1ccc2ncnc(Nc3ccc(Oc4cccc(C(F)(F)F)c4)c(Cl)c3)c21
Method in brief: as §1

[12] = compound: CC(C)C1=C2N=C(C=C(N2N=C1)NCC3=CC=CC=C3)NCCCCCCN
Method in brief: as §1

[13] = compound: CC(C)C[C@@H](C=O)NC(=O)[C@H](CC(C)C)NC(=O)[C@H](CC(C)C)NC(=O)OCc1ccccc1
Method in brief: as §1

pinometostat = compound: CC(C)N(C[C@H]1O[C@@H](n2cnc3c(N)ncnc32)[C@H](O)[C@@H]1O)[C@H]1C[C@@H](CCc2nc3cc(C(C)(C)C)ccc3[nH]2)C1 [pinometostat]
Method in brief: as §1

[14] = compound: CC1=C(C2=C(C=C1)C(=O)C3=CC=CC=C3N2CCCN)C
Method in brief: as §1

[15] = compound: CC1=C(C(CC(=O)N1)C2=CC=C(C=C2)C(F)(F)F)C(=O)NC3=C(C=C4C(=C3)C=NN4)F
Method in brief: as §1

Target	log2 fold change (erlotinib)	log2 fold change [1]	log2 fold change [2]	log2 fold change [3]	log2 fold change [4]	log2 fold change [5]	log2 fold change [6]	log2 fold change [7]	log2 fold change [8]	log2 fold change [9]	log2 fold change (IRAK-1-4 Inhibitor I)	log2 fold change (ibrutinib)	log2 fold change [10]	log2 fold change (ralimetinib)	log2 fold change [11]	log2 fold change [12]	log2 fold change [13]	log2 fold change (pinometostat)	log2 fold change [14]	log2 fold change [15]
PRPF38B (UniProt Q5VTL8)	inactive: -0.016	inactive: 0.022	inactive: -0.049	inactive: 0.082	inactive: -0.184	inactive: -0.085	inactive: -0.027	inactive: -0.146	inactive: -0.018	inactive: -0.054	inactive: -0.158	inactive: -0.005	active: -0.646	inactive: -0.025	inactive: 0.045	inactive: -0.06	inactive: 0.03	inactive: -0.029	inactive: 0.159	–
PPP2R5B (UniProt Q15173)	inactive: -0.044	inactive: 0.039	–	inactive: -0.05	inactive: -0.003	inactive: 0.072	–	inactive: 0.124	–	–	–	inactive: -0.083	inactive: 0.165	–	–	inactive: 0.092	–	–	–	–
PPP1R21 (UniProt Q6ZMI0)	inactive: -0.056	inactive: 0.072	inactive: 0.171	inactive: 0.016	inactive: 0.097	inactive: -0.036	–	inactive: 0.033	–	–	–	inactive: 0.057	inactive: -0.078	–	inactive: -0.15	inactive: 0.026	–	–	–	inactive: 0.131
PRIM1 (UniProt P49642)	inactive: 0.005	inactive: 0.011	inactive: -0.044	inactive: 0.049	inactive: -0.005	inactive: 0.027	inactive: -0.09	inactive: 0.061	inactive: -0.033	inactive: -0.074	inactive: -0.066	inactive: -0.035	inactive: 0.007	inactive: 0.048	inactive: -0.079	active: -0.319	inactive: 0.046	inactive: 0.114	inactive: -0.006	–
PPP1R12C (UniProt Q9BZL4)	inactive: -0.13	–	inactive: -0.011	inactive: -0.059	–	inactive: 0.064	inactive: 0.037	–	inactive: -0.05	inactive: -0.238	–	inactive: -0.024	–	inactive: -0.028	inactive: 0.045	inactive: -0.126	inactive: -0.041	–	inactive: -0.157	–
PRG2 (UniProt P13727)	inactive: 0.012	–	inactive: 0.062	inactive: 0.006	–	–	–	–	inactive: 0.115	inactive: -0.174	inactive: -0.01	–	–	–	inactive: 0.078	inactive: 0.137	–	inactive: 0.248	inactive: -0.333	–
PRPF40A (UniProt O75400)	inactive: 0.082	inactive: 0.083	inactive: -0.087	inactive: 0.012	inactive: 0.032	inactive: 0.007	inactive: -0.037	inactive: -0.135	inactive: -0.129	inactive: -0.124	inactive: -0.093	inactive: -0.085	inactive: -0.149	inactive: 0.095	inactive: -0.022	active: -0.411	inactive: 0.043	inactive: -0.041	inactive: 0.13	–
PPM1G (UniProt O15355)	inactive: 0.117	inactive: 0.118	inactive: 0.009	inactive: -0.017	inactive: 0.024	inactive: 0.035	inactive: -0.052	inactive: -0.022	inactive: -0.011	inactive: -0.065	inactive: -0.095	inactive: -0.102	inactive: -0.098	inactive: -0.044	inactive: -0.17	inactive: -0.223	inactive: 0.088	inactive: -0.067	inactive: -0.002	–
PRKCA (UniProt P17252)	inactive: 0.117	inactive: 0.041	inactive: 0.04	inactive: -0.009	inactive: 0.127	inactive: 0.016	inactive: -0.019	inactive: -0.006	inactive: 0.008	inactive: -0.074	inactive: 0.012	inactive: -0.02	active: -0.595	inactive: -0.039	inactive: -0.02	inactive: -0.035	inactive: 0.104	inactive: -0.015	inactive: 0.064	–
PRPF4B (UniProt Q13523)	inactive: 0.002	inactive: 0.044	inactive: -0.213	inactive: 0.074	inactive: -0.046	inactive: -0.064	inactive: -0.14	inactive: -0.12	inactive: -0.103	inactive: -0.113	inactive: -0.126	inactive: -0.015	inactive: -0.263	inactive: -0.001	inactive: 0.138	inactive: -0.029	inactive: 0.077	inactive: 0.099	inactive: -0.209	–
PPP2R5C isoform 2 (UniProt Q13362)	inactive: -0.012	–	–	inactive: -0.02	–	inactive: -0.011	inactive: -0.039	–	–	–	inactive: -0.036	inactive: -0.038	–	inactive: 0.026	–	inactive: -0.146	inactive: -0.095	inactive: -0.017	–	–
PROSER3, A0A2R8Y8D9	–	inactive: -0.071	inactive: 0.216	–	inactive: -0.22	–	–	inactive: 0.065	inactive: 0.098	inactive: 0.141	–	–	inactive: -0.022	–	inactive: 0.117	–	–	–	inactive: -0.026	–
PRKD2 (UniProt M0R346)	–	–	inactive: -0.066	–	–	inactive: -0.032	–	–	–	–	–	inactive: -0.096	–	–	inactive: -0.273	–	–	–	–	–
PRADC1 (UniProt Q9BSG0)	–	–	inactive: 0.096	–	–	–	–	–	inactive: -0.078	inactive: 0.064	inactive: 0.066	–	–	–	inactive: -0.05	–	–	inactive: -0.244	inactive: 0.167	–

Record cards, from the list above. Order of values: log2 fold change (erlotinib) | log2 fold change [1] | log2 fold change [2] | log2 fold change [3] | log2 fold change [4] | log2 fold change [5] | log2 fold change [6] | log2 fold change [7] | log2 fold change [8] | log2 fold change [9] | log2 fold change (IRAK-1-4 Inhibitor I) | log2 fold change (ibrutinib) | log2 fold change [10] | log2 fold change (ralimetinib) | log2 fold change [11] | log2 fold change [12] | log2 fold change [13] | log2 fold change (pinometostat) | log2 fold change [14] | log2 fold change [15]
PRPF40A (UniProt O75400) is listed as inactive: 0.082 | inactive: 0.083 | inactive: -0.087 | inactive: 0.012 | inactive: 0.032 | inactive: 0.007 | inactive: -0.037 | inactive: -0.135 | inactive: -0.129 | inactive: -0.124 | inactive: -0.093 | inactive: -0.085 | inactive: -0.149 | inactive: 0.095 | inactive: -0.022 | active: -0.411 | inactive: 0.043 | inactive: -0.041 | inactive: 0.13 | –
PPP2R5B (UniProt Q15173) is listed as inactive: -0.044 | inactive: 0.039 | – | inactive: -0.05 | inactive: -0.003 | inactive: 0.072 | – | inactive: 0.124 | – | – | – | inactive: -0.083 | inactive: 0.165 | – | – | inactive: 0.092 | – | – | – | –
